This note sets out measurements from paper PMC12484294.

Protein sequences, listed by entry. Tags and fused reporters are not part of them.
UniProt A0A8I3S4R3: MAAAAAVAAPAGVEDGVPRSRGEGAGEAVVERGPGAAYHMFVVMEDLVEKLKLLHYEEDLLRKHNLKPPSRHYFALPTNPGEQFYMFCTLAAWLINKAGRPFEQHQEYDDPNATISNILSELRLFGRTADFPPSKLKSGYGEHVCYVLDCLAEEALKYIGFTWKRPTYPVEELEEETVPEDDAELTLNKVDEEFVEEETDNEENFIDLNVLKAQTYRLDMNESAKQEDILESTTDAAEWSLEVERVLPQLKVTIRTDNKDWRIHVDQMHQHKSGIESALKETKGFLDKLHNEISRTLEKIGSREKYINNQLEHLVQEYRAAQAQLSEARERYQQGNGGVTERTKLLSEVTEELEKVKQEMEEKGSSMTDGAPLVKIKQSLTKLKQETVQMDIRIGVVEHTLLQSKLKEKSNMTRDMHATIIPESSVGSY

The target of this assay is T1, ZO-2 (Zonula occludens-2) (dog (endogenous in MDCK)) (UniProt Q95168).
T1 sequence: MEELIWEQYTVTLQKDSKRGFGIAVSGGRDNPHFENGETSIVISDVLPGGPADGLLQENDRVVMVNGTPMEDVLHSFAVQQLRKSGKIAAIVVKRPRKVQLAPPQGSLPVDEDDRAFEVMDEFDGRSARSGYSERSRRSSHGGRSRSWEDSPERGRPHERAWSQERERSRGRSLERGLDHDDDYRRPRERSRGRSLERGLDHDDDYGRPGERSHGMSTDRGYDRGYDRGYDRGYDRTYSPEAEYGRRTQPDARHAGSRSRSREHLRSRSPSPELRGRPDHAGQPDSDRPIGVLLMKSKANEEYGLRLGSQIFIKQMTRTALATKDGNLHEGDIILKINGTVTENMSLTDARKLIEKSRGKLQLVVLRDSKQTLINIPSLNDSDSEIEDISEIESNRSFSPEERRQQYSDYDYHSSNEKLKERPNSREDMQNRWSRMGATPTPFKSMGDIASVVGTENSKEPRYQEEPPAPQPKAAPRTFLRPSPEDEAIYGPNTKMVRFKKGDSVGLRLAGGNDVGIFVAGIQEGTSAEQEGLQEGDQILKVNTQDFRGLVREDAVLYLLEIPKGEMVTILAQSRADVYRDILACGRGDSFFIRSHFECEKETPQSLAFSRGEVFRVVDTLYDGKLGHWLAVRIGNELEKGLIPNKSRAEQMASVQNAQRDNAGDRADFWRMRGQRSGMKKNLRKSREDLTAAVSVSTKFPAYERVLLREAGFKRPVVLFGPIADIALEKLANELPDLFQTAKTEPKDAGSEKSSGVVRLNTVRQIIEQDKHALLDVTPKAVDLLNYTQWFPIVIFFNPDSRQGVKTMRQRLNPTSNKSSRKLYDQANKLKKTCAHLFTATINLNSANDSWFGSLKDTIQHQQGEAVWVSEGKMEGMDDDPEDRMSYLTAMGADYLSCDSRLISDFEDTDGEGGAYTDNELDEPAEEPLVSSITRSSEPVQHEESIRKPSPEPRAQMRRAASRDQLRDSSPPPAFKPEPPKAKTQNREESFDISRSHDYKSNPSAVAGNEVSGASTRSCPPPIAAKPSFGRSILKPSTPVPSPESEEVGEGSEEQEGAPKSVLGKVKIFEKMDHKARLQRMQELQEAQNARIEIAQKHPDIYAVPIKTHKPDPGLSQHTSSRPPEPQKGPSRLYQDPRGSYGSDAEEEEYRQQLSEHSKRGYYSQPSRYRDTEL
As to the kind of experiment: co-IP; ZO-2 immunoprecipitated with anti-ZO-2 (1 ul per 300 ug protein) from lysate of parental MDCK cells; buffer 50 mM Tris-HCl pH 7.5, 150 mM NaCl, 1% NP-40, protease inhibitors; Western blot of the precipitate; subconfluent or proliferating cells (KIF14, NuMA, p-Aurora, TPX2) or confluent cells (IFT57); pre-immune serum as control. Background: In western blotting, separated proteins are transferred to a membrane and probed.

No constants are given. Whether binding was seen depends on the method and setting. Binding seen in cells or lysates may run through a third protein. Some results given as binding are weak or reduced against the parent protein; the word gives no strength.

Turning to “IFT-B protein IFT57 (from UniProt A0A8I3S4R3 1-429)”, the binding entry is recorded as “binds”.
